Data from the supplement of paper PMC12823440, “Inhibitors supercharge kinase turnover through native proteolytic circuits” (Nature, 2025).
Some of the results follow. Hit calls seldom repeat between salt and free forms of one compound.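 Kinases, fused to nanoluciferase, were expressed in K562 cells; luminescence was measured every 4 h from 2 to 18 h as percent of control (DMSO = 100%, positive control = 0%). A time point is decreased if signal falls significantly (2 sigma). Hits were called by the authors by a rule that is not shown; the count of time points alone does not decide it.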

By UniProt entry, the sequences of proteins in these tests, tags left out. Where a name states a change or a piece, a line headed by the entry shows the natural chain unless it says otherwise.
UniProt Q13555: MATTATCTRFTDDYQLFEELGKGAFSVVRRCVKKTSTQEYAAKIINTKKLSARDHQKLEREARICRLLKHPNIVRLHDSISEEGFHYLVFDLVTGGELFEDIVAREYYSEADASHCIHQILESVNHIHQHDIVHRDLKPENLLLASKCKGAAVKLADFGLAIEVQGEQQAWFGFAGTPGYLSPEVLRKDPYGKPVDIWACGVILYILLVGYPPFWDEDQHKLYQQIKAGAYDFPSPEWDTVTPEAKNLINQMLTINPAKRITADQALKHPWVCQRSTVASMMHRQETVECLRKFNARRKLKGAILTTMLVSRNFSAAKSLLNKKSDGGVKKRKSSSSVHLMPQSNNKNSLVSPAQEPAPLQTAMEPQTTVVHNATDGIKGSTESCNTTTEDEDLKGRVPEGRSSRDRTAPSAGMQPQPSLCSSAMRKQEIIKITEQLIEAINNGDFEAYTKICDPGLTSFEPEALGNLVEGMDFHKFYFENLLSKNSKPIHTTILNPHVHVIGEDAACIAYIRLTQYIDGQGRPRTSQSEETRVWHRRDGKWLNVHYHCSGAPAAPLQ

biological target: CAMK2G (UniProt Q13555); test: kinase-Nluc reporter destabilization hit call (1 = scored as downregulated) (binary); higher = compound decreases kinase abundance; conditions: K562; 2-18 h

kinase-Nluc reporter destabilization hit call, inactive:
CC(C)CCN1c2nc(Nc3cc(F)c(O)c(F)c3)ncc2N(C)C(=O)C1C (stereo not given) (2.5 µM) 0
CC(C)=CC[C@@H](O)C1=CC(=O)c2c(O)ccc(O)c2C1=O [Shikonin] (10 µM) 0
CCC(=O)Nc1cccc(Oc2nc(Nc3ccc(N4CCN(C)CC4)cc3OC)ncc2Cl)c1 (10 µM) 0
CC(C)=CCC/C(C)=C/CC/C(C)=C/C=C/C(C)=C/C(=O)O [Peretinoin] (10 µM) 0
COc1ccc2c(Oc3ccc4c(C(=O)Nc5ccccc5N)cccc4c3)ccnc2c1 [Chiauranib] (10 µM) 0
Cc1nn(C)cc1-c1nc2c(N3CCN(Cc4ccc(Cl)cc4)CC3)c(Cl)cnc2[nH]1 (10 µM) 0
CNC(=O)c1cc2c(Oc3ccc(NC(=O)C4(C(=O)Nc5ccc(F)cc5)CC4)cc3)ccnc2cc1OC (2.5 µM) 0
O=C(Nc1cccnc1)c1cc(-c2ccnc(F)c2)ccc1OCc1ccccc1 (10 µM) 0
CN(C)c1ccc(-c2nc3ncc(Cl)c(N4CCN(CC(=O)Nc5nccs5)CC4)c3[nH]2)cc1 (2 µM) 0
Cc1cc(C(=O)NC(C)(C)C)cc(C#Cc2ccc3c4c(oc3c2)C(C)(C)c2cc(NS(C)(=O)=O)ccc2C4=O)n1 (10 µM) 0
O=C(O)c1cc(N(Cc2ccccc2O)Cc2cc(O)ccc2O)ccc1O [Lavendustin A] (10 µM) 0
C[C@@H](Nc1ncnc2[nH]c(-c3ccc(O)cc3)cc12)c1ccccc1 (2.5 µM) 0
O=C(O)c1ccc(/C=C/S(=O)(=O)Cc2ccc(Cl)cc2)cc1 [Recilisib] (10 µM) 0
Nc1nc(NCCNc2ncc(-n3ccnc3)c(-c3ccc(Cl)cc3Cl)n2)ccc1[N+](=O)[O-] (2.5 µM) 0
Cc1cnc(NC(=O)c2cc(Oc3cnc(C(=O)N(C)C)nc3)c3cc(C)oc3c2)cn1 (10 µM) 0
CNC(=O)CNc1cnc2ccc(-c3ccc(OC)c(OC)c3)cc2n1 (10 µM) 0
N[C@@H]1CCCN(c2c(/C=C3\SC(=O)NC3=O)cccc2-c2ccccc2)C1 (10 µM) 0
CO[C@H]1C[C@@H]2CC[C@@H](C)[C@@](O)(O2)C(=O)C(=O)N2CCCC[C@H]2C(=O)O[C@H]([C@H](C)C[C@@H]2CC[C@@H](OC(=O)C(C)(CO)CO)[C@H](OC)C2)CC(=O)[C@H](C)/C=C(\C)[C@@H](O)[C@@H](OC)C(=O)[C@H](C)C[C@H](C)/C=C/C=C/C=C/1C [Temsirolimus] (2.5 µM) 0
COc1cc2nccc(Oc3ccc(NC(=O)c4cn(C(C)C)c(=O)n(-c5ccc(F)cc5)c4=O)cc3F)c2cc1OC (0.5 µM) 0
C=C1CCC[C@]2(C)C=C3OC(=O)C(C)=C3C[C@@H]12 [Atractylenolide I] (10 µM) 0
C=CC(=O)Nc1cc(Nc2nccc(-c3cn(C)c4ccccc34)n2)c(OC)cc1OCCN(C)C [Rezivertinib] (2.5 µM) 0
C=C1C(=O)[C@@]23[C@H](O)C[C@@H]4C(C)(C)C(=O)CC[C@@]4(C)[C@@H]2CC[C@@H]1[C@H]3O [Glaucocalyxin A] (2.5 µM) 0
NC1(C(=O)NCCCn2cc(-c3ccc(OC(F)(F)F)cc3)c3cc(CN4CCN(Cc5c(Cl)cccc5Cl)CC4)ccc32)CCNCC1 (2.5 µM) 0
CC(Sc1nc2c(cnn2-c2cccc(Cl)c2)c(=O)[nH]1)C(N)=O (stereo not given) (10 µM) 0
Fc1ccc2[nH]ccc2c1-c1nc(N2CCOCC2)c2sc(CN3CCN(CC4CC4)CC3)cc2n1 (10 µM) 0
Cn1cc(-c2cc(Oc3cc(F)c(NC(=O)C4(C(=O)Nc5ccccc5)CC4)cc3F)ccn2)cn1 (2.5 µM) 0
COc1ccc(S(=O)(=O)Nc2cc(-c3c(O)ccc4ccccc34)c(O)c3ccccc23)cc1 (10 µM) 0
Cn1c2cc([S+](C)[O-])sc2c2cnn(Cc3cccc(N)c3)c(=O)c21 (stereo not given) (2.5 µM) 0
O=C(NCCO)c1cc(C(=O)NCCO)cc(C(=O)NCCO)c1 (10 µM) 0
N#Cc1cnc2c(Cl)cc(NCc3cn(CCN4CCCCCC4)nn3)cc2c1Nc1ccc(F)c(Cl)c1 [Cot inhibitor-1] (10 µM) 0

A draw from above in order of molecular weight, falling.
kinase-Nluc reporter destabilization hit call, inactive:
CC(C)CCN1c2nc(Nc3cc(F)c(O)c(F)c3)ncc2N(C)C(=O)C1C (stereo not given) (2.5 µM) 0
CC(C)=CCC/C(C)=C/CC/C(C)=C/C=C/C(C)=C/C(=O)O [Peretinoin] (10 µM) 0
CC(C)=CC[C@@H](O)C1=CC(=O)c2c(O)ccc(O)c2C1=O [Shikonin] (10 µM) 0
